Values joined by “and” are separate entries in the source; they are usually repeats but may differ in a detail not shown here. Equal entries are not always repeated. Some of the results follow. The main result of the screen is listed elsewhere. These columns were measured beside it and carry no call. Compounds called inactive in the main read-out are mostly missing here. Words in brackets tell the shape of the fitted curve; partial curves, single points and poor fits give uncertain potencies.

A short description of the experiment: qHTS Assay to Find Inhibitors of Chronic Active B-Cell Receptor Signaling. Particulars: ABC-DLBCL IkBa-CBG/CBR reporter, luminescence ratio (green luciferase fused to IkBa over red control in TMD8 lymphoma cells), 4 h. In a few lines:
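Cell line TMD8 (human ABC DLBCL), stably expressing tet-inducible CBG68-IkBa fusion and CBR; IMDM/0.5% FBS; cpd up to 46 uM; dox induction, 4 h, 37C/5% CO2; dual luminescence; green/red ratio; MG132 control.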
(In general: Quantitative high-throughput screening tests each substance at several concentrations.)

The mark [1] stands for this setting: measured here: CBR red luminescence, cell number.
[2] abbreviates: measured here: IkBa-CBG green luminescence.

A word on the AC50: it is the midpoint of the concentration-response curve, whichever way the signal moves. Consider `CCOc1ccc2nc(N3CCCC(C(=O)NCCCN4CC(C)CC(C)C4)C3)sc2c1` (configuration not stated), for which, under setting [1], the AC50 is 2.82 µM [falling, full curve, poor fit].

On to `COc1ccccc1CNC(=O)CCCNC(=O)Cn1cnc2sc(C)c(C)c2c1=O`, for which the AC50 under setting [1] was 6.31 µM [rising, single point].

For the compound `Oc1c(Br)cc(Br)cc1CNc1cnc2ccccc2c1`, the AC50 reads like this: under setting [1], 12.6 µM [falling, partial curve]; under setting [2], 35.5 µM [rising, partial curve, poor fit].

In the case of `O=C(O)c1ccc(NC2=C(N3CCOCC3)C(=O)c3ccccc3C2=O)cc1`, under setting [1], the AC50 is 10.3 µM [falling, partial curve, poor fit].

In the case of `COc1ccc2c(c1)c(CC(=O)OC(C)C(=O)N(C)C)c(C)n2C(=O)c1ccc(Cl)cc1` (configuration not stated), the AC50 under setting [1] is 10 µM [falling, partial curve, poor fit].

For the compound `O=C(/C=C\c1ccco1)Nc1cc([N+](=O)[O-])ccc1F`, the AC50 was 8.2 µM [rising, partial curve] under setting [1] and 5.17 µM [falling, full curve] under setting [2].

Consider `COc1ccc(-c2cc3nc(C)c(CCC(=O)N4CCN(c5ccccn5)CC4)c(C)n3n2)c(OC)c1`, for which the AC50 under setting [1] was 10 µM [falling, partial curve].

As for `COc1ccc(-c2csc(NC(=O)Cc3ccccc3F)n2)cc1OC`, under setting [1], the AC50 is 15.8 µM [falling, single point].

With `COc1ccc(/C=C/C(=O)O)cc1Cl`, the AC50 under setting [1] was 7.08 µM [rising, partial curve, poor fit].

Consider `Cc1cccc(NC(=O)CN(C)CC(=O)NC(c2ccccc2)c2ccccc2)c1C`, for which, under setting [1], the AC50 was 1.03 µM [falling, full curve, poor fit].

For `CC(C)(C)NC(=O)CSC(=Nc1cccc(F)c1)NC#N`, the AC50 under setting [1] was 17.8 µM [falling, single point].

On to `COc1ccc(/C=C/C(=O)O)cc1S(=O)(=O)NC1CCS(=O)(=O)C1` (configuration not stated), for which, under setting [1], the AC50 is 35.5 µM [rising, single point].

With `Cc1cc2cc3c(cc2nc1SCC(=O)OC(C)C)OCO3`, the AC50 under setting [1] was 32.6 µM [rising, single point].

With `COC(=O)CCCC1=CC2=CC(=O)C(C)(OC(=O)c3cccs3)C(=O)C2=CN1CCc1ccccn1` (configuration not stated), the AC50 under setting [1] is 20 µM [rising, partial curve, poor fit].

As for `CN1c2ccccc2C(C)(C)C12C=Nc1c(cc(N3CCOCC3)c3ccccc13)O2` (configuration not stated), the AC50 under setting [1] was 7.08 µM [falling, partial curve].

As to `CCOC(=O)c1ccc2c(c1)N(CC(=O)N1CCCC1)C(=O)C(C)(C)O2`, the AC50 under setting [1] was 12.6 µM [rising, partial curve, poor fit].

For the compound `CCN(c1ccccc1)c1ncnc2c1cnn2-c1ccccc1`, under setting [1], the AC50 was 3.26 µM [rising, full curve, poor fit].

In the case of `O=C(NCc1ccc2c(c1)OCO2)c1cccc(S(=O)(=O)N2CCOCC2)c1`, the AC50 under setting [1] is 29.1 µM [falling, single point].

In the case of `CS(=O)(=O)c1ccc(-c2sc3ccccc3c2C#CCCO)cc1`, under setting [1], the AC50 was 23.1 µM [rising, single point].

Take `NC(=O)CC(NC(=O)Cc1ccc(Br)cc1)c1ccc(N2CCN(c3ccccn3)CC2)c([N+](=O)[O-])c1` (configuration not stated): under setting [1], the AC50 is 6.31 µM [rising, single point].

In the case of `O=C(NCCc1ccc(Cl)cc1Cl)c1cccnc1`, the concentration at half-maximal activity (AC50) under setting [1] is 6.31 µM [rising, full curve, poor fit].

With `CC12COC3(C(=O)NCCc4ccccc4)CC1CCC32C` (configuration not stated), under setting [1], the AC50 was 25.9 µM [rising, single point].

As to `c1cc2c(cc1-c1[nH]ncc1CN1C[C@H]3CC[C@H]1C3)OCO2`, the AC50 under setting [1] was 1.78 µM [falling, partial curve, poor fit].

Regarding `COc1cccc(SCc2noc(C(=O)NC(C)C)c2C(=O)O)c1`, under setting [1], the AC50 is 22.4 µM [falling, single point].

Regarding `N#Cc1ccc2c(c1)C[C@]1(c3ccsc3)OC3=C(C(=O)OC4(CCCCC4)C3)C2O1`, under setting [1], the AC50 was 1.41 µM [falling, partial curve, poor fit].

`COc1ccc(/C=C/C(=O)c2cc3c(cc2N)OCO3)cc1`: under setting [1], the AC50 is 5.62 µM [falling, full curve, poor fit].

`COc1ccc(C(=O)CC(=O)C(=O)Nc2cc([N+](=O)[O-])ccc2OC)cc1`: the AC50 under setting [1] is 35.5 µM [rising, single point].

With `Cc1ccc(CNCC(O)(c2ccc(F)cc2)c2ccc(F)cc2)cc1`, the AC50 under setting [1] is 11.2 µM [falling, single point].

With `CCOc1ccccc1N1CCN(C(=S)NCc2ccc(Cl)cc2)CC1`, the half-maximal activity concentration (AC50) under setting [1] was 22.4 µM [falling, single point].

With `Cc1ccccc1N1CCN(C2CCCN(C(=O)c3cn4cccc(C)c4n3)C2)CC1` (configuration not stated), the AC50 under setting [1] is 22.4 µM [falling, single point].

In the case of `COc1ccc(NC(=S)N(CCC(C)C)C2CCN(C(C)C)CC2)cc1`, the AC50 under setting [1] was 14.1 µM [rising, single point].

Take `CNc1oc(-c2cccc3ccccc23)nc1C#N`: the AC50 under setting [1] is 14.1 µM [rising, single point].

As for `CCn1cc(C(=O)NCCOC)c(=O)c2ccc(C)nc21`, under setting [1], the AC50 is 5.8 µM [falling, partial curve, poor fit].

In the case of `CCCCn1c(SCC(=O)NCc2ccco2)nnc1-c1ccco1`, the AC50 under setting [1] is 6.31 µM [rising, single point].

For `Cc1ccccc1-c1cc(C(=O)NCc2cccc(Br)c2)n(CC2CC(c3cccnc3)=NO2)n1` (configuration not stated), the AC50 under setting [1] was 9.2 µM [falling, partial curve, poor fit].

In the case of `O=C(OCCN1CCCCC1)c1c[nH]c2ccccc12`, under setting [1], the AC50 is 13 µM [rising, partial curve, poor fit].

Take `N#CCC(=O)N/N=C\c1ccccc1OC/C=C/c1ccccc1`: the AC50 under setting [1] was 0.316 µM [rising, partial curve, poor fit].

Take `COc1ccc(N2CCN(C(=O)CN(c3ccc(OC)cc3)S(=O)(=O)c3ccccc3)CC2)cc1`: under setting [1], the AC50 is 3.16 µM [rising, partial curve].

In the case of `CCOC(=O)c1c(NC(=O)CCN2CCOCC2)sc2c1CC(C)(C)OC2`, the AC50 under setting [1] is 2.24 µM [rising, full curve].

As for `COc1ccc(OCC(=O)Nc2nc3ccccc3[nH]2)cc1`, the AC50 under setting [1] was 29.1 µM [falling, partial curve, poor fit].

Turning to `O=C(COC(=O)c1ccc(F)c(S(=O)(=O)N2CCOCC2)c1)NC1CC1`, the AC50 under setting [1] is 0.231 µM [rising, full curve, poor fit].

In the case of `Cc1sc(NC(=O)CCCC(=O)O)c(C#N)c1C`, under setting [1], the concentration at half-maximal activity (AC50) was 2.91 µM [rising, single point].

For `O=S(=O)(Nc1cccc(Oc2ccc(Cl)cc2)n1)c1ccc(F)cc1`, the AC50 under setting [1] is 5.62 µM [falling, full curve, poor fit].

Turning to `COc1ccc(C2c3c(ncn(CCCN4CCOCC4)c3=N)Oc3ccc4ccccc4c32)cc1OC` (configuration not stated), the AC50 under setting [1] was 11.2 µM [falling, partial curve, poor fit].

Regarding `COC(=O)c1[nH]c2ccc(Br)cc2c1NC(=O)CN1CCCCC1CCO` (configuration not stated), under setting [1], the AC50 was 7.94 µM [rising, partial curve].

On to `c1cncc(CNc2ncnc3ccc(-c4cccnc4)cc23)c1`, for which the AC50 under setting [1] is 11.6 µM [rising, single point] and 23.1 µM [rising, single point]; the AC50 under setting [2] is 14.6 µM [falling, partial curve, poor fit].

`CCOC(=O)c1[nH]c2cc(OC)c(OC)cc2c1NC(=O)c1nonc1C`: under setting [1], the AC50 was 0.708 µM [falling, full curve, poor fit].

As to `c1ccc(-n2nnnc2NC2CCCCCC2)cc1`, under setting [1], the AC50 was 0.0651 µM [falling, full curve, poor fit].

Turning to `O=C(Nc1ccc2nc3n(c(=O)c2c1)CCCCC3)c1c(F)ccc([N+](=O)[O-])c1F`, the AC50 under setting [1] is 3.16 µM [falling, full curve].

Turning to `O=c1c2cc(Cl)ccc2[nH]c(=S)n1Cc1ccco1`, the AC50 under setting [1] was 0.731 µM [falling, full curve, poor fit].

Regarding `COc1ccc(S(=O)(=O)Nc2ccc(O)c3ccccc23)cc1`, the AC50 under setting [1] was 25.9 µM [falling, partial curve].

`O=C(COc1ccc(F)cc1Cl)NC1CCCCCC1`: the AC50 under setting [1] was 29.1 µM [rising, single point].

For `Cn1c(O)c(C=Nc2ccc(Br)cc2)sc1=O`, the AC50 under setting [1] was 0.631 µM [rising, full curve].

With `COc1ccc2nc(NC(=O)c3cccs3)sc2c1`, the AC50 under setting [1] is 0.562 µM [falling, full curve].

For the compound `COCCCNC(=O)Cn1c(=O)n(Cc2ccc(F)cc2)c(=O)c2sccc21`, the AC50 under setting [1] was 3.16 µM [rising, partial curve, poor fit].

`Cc1nn(C)c(=O)c(N)c1-c1cc(-c2ccc(Cl)c(Cl)c2)n[nH]1`: under setting [1], the AC50 is 20 µM [rising, partial curve, poor fit].

On to `O=C(Cn1cnc([N+](=O)[O-])n1)NCCc1ccccc1`, for which, under setting [1], the AC50 was 6.31 µM [rising, single point].

`Cc1ccc(NCc2ccccc2)cc1`: the AC50 under setting [1] was 35.5 µM [rising, single point].

For `Oc1cc(-c2cccnc2)cc2cccnc12`, the AC50 reads like this: under setting [1], 580 nM [rising, full curve, poor fit] and 2.06 µM [falling, partial curve, poor fit]; under setting [2], 1.46 µM [falling, partial curve, poor fit].

For the compound `O=[N+]([O-])c1ccc(N2CCCCC2)cc1`, the AC50 under setting [1] is 1 µM [rising, full curve, poor fit].

On to `COc1cccc(NC(=O)CSC2=Nc3ccccc3C3=NC(CC(=O)NCc4ccc5c(c4)OCO5)C(=O)N23)c1` (configuration not stated), for which the AC50 under setting [1] was 25.1 µM [falling, single point].

Take `CC(=O)OC1COC(OC2C(O)C(C)OC(OC3C(OC4CCC5(C)C(CCC6(C)C5CC=C5C7CC(C)(C)CCC7(C(=O)O)CCC56C)C4(C)CO)OCC(O)C3O)C2O)C(O)C1OC(C)=O` (configuration not stated): the AC50 runs as follows: under setting [1], 14.1 µM [falling, partial curve, poor fit]; under setting [2], 25.1 µM [rising, partial curve, poor fit].

Values taken from PubChem BioAssay AID493014 (National Center for Advancing Translational Sciences (NCATS), 2011).
